In patent US20090202993:

Legend:
Experiment in all cases: enzyme reaction in vitro
[1] = biological target: T1, Phi29 DNA polymerase (Bacillus phage phi29) (UniProt P03680); details: RNA 3' end processed into primer; RCA product with dNTPs; purified recombinant protein; protein details: Fermentas; label: 5'-33P or 3'-32P RNA; DNA:RNA hybrid
T1 sequence (limits assumed): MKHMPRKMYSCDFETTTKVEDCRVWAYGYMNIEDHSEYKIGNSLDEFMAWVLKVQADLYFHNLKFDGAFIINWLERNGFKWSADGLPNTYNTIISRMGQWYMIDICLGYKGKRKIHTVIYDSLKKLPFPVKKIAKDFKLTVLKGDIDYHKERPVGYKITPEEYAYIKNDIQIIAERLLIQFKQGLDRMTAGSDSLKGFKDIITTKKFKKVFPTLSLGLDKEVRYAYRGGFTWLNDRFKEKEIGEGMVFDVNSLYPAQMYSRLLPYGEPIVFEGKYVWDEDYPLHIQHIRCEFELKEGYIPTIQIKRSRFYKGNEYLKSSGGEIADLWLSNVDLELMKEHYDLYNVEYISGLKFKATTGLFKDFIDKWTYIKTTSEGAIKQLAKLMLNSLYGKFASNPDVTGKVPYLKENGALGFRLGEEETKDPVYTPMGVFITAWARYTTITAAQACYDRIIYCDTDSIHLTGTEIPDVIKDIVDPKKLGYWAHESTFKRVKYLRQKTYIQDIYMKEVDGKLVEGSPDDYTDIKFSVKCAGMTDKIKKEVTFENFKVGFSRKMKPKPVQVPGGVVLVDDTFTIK

[2] = biological target: T2, T4 DNA polymerase (Enterobacteria phage T4) (UniProt P04415); details: hydrolyses RNA in hybrid and initiates DNA synthesis, lower synthesis than Phi29, purified recombinant protein, protein details: Fermentas, label: 5'-33P or 3'-32P RNA
T2 sequence (limits assumed): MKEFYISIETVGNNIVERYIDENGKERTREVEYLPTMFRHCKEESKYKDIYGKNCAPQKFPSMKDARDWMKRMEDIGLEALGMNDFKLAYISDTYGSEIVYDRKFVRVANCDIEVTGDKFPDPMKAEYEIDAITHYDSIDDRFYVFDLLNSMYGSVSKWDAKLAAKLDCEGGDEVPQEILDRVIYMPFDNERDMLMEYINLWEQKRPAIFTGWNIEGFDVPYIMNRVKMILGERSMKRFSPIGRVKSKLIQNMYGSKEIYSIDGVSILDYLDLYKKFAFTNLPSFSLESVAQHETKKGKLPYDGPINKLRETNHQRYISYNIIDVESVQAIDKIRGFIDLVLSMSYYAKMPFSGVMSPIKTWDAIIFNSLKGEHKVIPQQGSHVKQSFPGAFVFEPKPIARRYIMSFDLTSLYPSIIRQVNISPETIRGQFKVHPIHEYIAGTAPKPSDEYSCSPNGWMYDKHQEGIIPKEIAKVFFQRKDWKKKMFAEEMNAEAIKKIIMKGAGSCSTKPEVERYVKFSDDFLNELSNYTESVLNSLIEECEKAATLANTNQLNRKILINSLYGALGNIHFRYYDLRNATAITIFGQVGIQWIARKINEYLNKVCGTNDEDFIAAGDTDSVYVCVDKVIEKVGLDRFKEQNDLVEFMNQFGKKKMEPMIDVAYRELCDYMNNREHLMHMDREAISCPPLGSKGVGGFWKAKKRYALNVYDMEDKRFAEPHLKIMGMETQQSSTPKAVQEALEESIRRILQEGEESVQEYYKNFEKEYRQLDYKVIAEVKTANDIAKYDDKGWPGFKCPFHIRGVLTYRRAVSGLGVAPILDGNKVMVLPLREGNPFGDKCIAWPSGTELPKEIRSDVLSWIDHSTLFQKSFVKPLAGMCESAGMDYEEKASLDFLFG

[3] = biological target: T3, T7 DNA polymerase (Enterobacteria phage T7) (UniProt P00581); details: without dNTPs degrades RNA to nucleotides or short oligos, no stop at hybrid, lower DNA synthesis than Phi29, purified recombinant protein, protein details: Fermentas, label: 5'-33P or 3'-32P RNA
T3 sequence (limits assumed): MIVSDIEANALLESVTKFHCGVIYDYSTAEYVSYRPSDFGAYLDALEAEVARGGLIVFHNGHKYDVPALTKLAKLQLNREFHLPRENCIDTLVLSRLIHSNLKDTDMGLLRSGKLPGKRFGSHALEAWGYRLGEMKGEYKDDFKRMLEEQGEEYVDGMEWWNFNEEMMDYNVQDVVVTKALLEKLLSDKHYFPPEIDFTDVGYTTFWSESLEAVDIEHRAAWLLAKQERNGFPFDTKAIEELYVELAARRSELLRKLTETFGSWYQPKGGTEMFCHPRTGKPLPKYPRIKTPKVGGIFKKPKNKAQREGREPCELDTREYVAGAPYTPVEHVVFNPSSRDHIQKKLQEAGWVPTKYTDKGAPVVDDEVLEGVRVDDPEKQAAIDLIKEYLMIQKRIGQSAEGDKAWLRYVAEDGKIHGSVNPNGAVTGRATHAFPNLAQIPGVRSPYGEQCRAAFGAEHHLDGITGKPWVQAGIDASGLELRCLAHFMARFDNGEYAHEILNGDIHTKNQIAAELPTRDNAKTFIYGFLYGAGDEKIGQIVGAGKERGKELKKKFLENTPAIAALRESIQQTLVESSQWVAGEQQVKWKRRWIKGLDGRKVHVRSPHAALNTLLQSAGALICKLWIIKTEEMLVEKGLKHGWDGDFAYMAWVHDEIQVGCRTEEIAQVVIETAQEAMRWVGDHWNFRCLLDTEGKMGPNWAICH

Measured: activity on this sequence

GGGAAAGCUUUACAUUUUCGCGAUACCGUCCAGCGACAUUCUUCCUCGGUACAUAAUCUCCUUUGGCGUUUCCCGAUGUCCGUCACGCACAUGGGAUCCCCGGGUACCGAG / ATGTCGCTGGACGGTAATGCTGCTGCTGTACTACGAGCGGTCTCCAGGAATGCGCATTTATGTACCGAGGAAGA [RNA2-PP2 hybrid]
active: all assays above

Protein sequences can lack the tags named with them.
